PubChem BioAssay AID328 (DTP/NCI, 2004)
The list is a part of this screen's results and no random one: it is rich in T/C values a quarter to a half above the control, in often repeated tests (any T/C) and in doses without a T/C. Further doses and runs are listed elsewhere. T/C gives the treated animals as a percentage of the vehicle group. Some doses have a count of surviving animals in place of a T/C: the source files T/C as zero there, which appears to mark a toxic dose or a test without result, not a measured value. Some survivor counts are full or nearly so, which does not show that the dose was tolerated: survival well below the control is almost never listed, so the zero probably covers shortened survival too. Survivors were counted at the toxicity check, usually on the fifth day, unless a day is given; later deaths do not show. Schedule codes are those of the source, taken here to give the interval after Q, in days (D) or hours (H), and the number of doses after X. Some doses were run more than once; their values stand side by side, smallest first. For survival time, the PubChem record calls one and a half times the control and up active, and a quarter to a half above the control has no call in these data; cut-offs in other NCI protocols can differ. Some T/C values carry the count of animals alive at the toxicity check (mostly the fifth day); without a count, all were alive then.

System: BDF1 mice, P388 leukemia ip, median survival T/C
Test: NCI In Vivo Anticancer Drug Screen. Data for tumor model P388 Leukemia (intraperitoneal) in B6D2F1 (BDF1) mice
Conditions: T/C endpoint: median survival time, higher T/C = longer survival
Description: The antitumor activity of compounds was measured in mice bearing transplantable tumors. Survival or tumor size were measured and the results are expressed as the measurement made in the treated group (T) divided by the measurement made in the vehicle treated control group (C). The tumor model used in this assay is P388 Leukemia (intraperitoneal) in B6D2F1 (BDF1) mice

[1] = dose: 100.0 mg/kg/injection, schedule: Q01DX009 (ip), vehicle: saline with Tween-80
[2] = dose: 400.0 mg/kg/injection, schedule: Q01DX009 (ip), vehicle: saline with Tween-80
[3] = dose: 200.0 mg/kg/injection, schedule: Q01DX009 (ip), vehicle: saline with Tween-80
[4] = dose: 400.0 mg/kg/injection, schedule: Q04DX003 (ip), vehicle: saline with Tween-80
[5] = dose: 100.0 mg/kg/injection, schedule: Q01DX009 (ip), vehicle: Klucel (hydroxypropylcellulose) (HPC)
[6] = dose: 200.0 mg/kg/injection, schedule: Q01DX009 (ip), vehicle: Klucel (hydroxypropylcellulose) (HPC)
[7] = dose: 1.0 mg/kg/injection, schedule: Q01DX009 (ip), vehicle: saline with Tween-80

C[C@]12CC[C@H](OC(=O)Cc3ccc(N(CCCl)CCCl)cc3)CC1=CC[C@@H]1[C@@H]2CC[C@]2(C)C(=O)CC[C@@H]12
T/C [1]: 125 % of control | T/C (dose: 175.0 mg/kg/injection, schedule: Q04DX003 (ip), vehicle: saline with Tween-80): 131 % of control | T/C (dose: 264.0 mg/kg/injection, schedule: Q04DX003 (ip), vehicle: alcohol): 140 % of control [5 of 6 alive] | T/C [2]: 125 % of control

O=[N+]([O-])c1cc2c(c([N+](=O)[O-])c1)OCOC2
survivor count [3]: 5 of 6 | survivor count [4]: 5 of 6

CCN(CC)CCCNc1cccc2c(C)cc(OC)nc12
survivor count [3]: 1 of 6

CN(C)CCN1C(=O)c2cccc3cc([N+](=O)[O-])cc(c23)C1=O
survivor count (dose: 12.5 mg/kg/injection, schedule: Q01DX009 (ip), vehicle: saline with Tween-80): 4 of 6

CCOC(=O)c1cnn2c(SC)ncnc12
survivor count [1]: 6 of 6 | survivor count [3]: 4 of 6 | survivor count [2]: 0 of 6

COc1ccc2ccccc2c1C1NC(=O)c2ccccc2N1 (stereo not drawn)
T/C [5]: 125 and 133 % of control | T/C [6]: 125 % of control | survivor count (dose: 400.0 mg/kg/injection, schedule: Q01DX009 (ip), vehicle: Klucel (hydroxypropylcellulose) (HPC)): 4 of 6

Cc1ncnc2c1CCC2
survivor count (dose: 300.0 mg/kg/injection, schedule: Q01DX009 (ip), vehicle: saline with Tween-80): 2 of 6 | survivor count [4]: 1 of 6

CN1C(=O)CC2(CCN(CCCC(=O)c3ccc(F)cc3)CC2)C1=O
survivor count [5]: 4 of 6 | survivor count [6]: 0 of 6

CC1=CC23C(COC(=O)C24CO4)C(C(=O)O)=CC3C1C (stereo not drawn)
survivor count (dose: 2.5 mg/kg/injection, schedule: Q01DX009 (ip), vehicle: Klucel (hydroxypropylcellulose) (HPC)): 2 of 3 | survivor count (dose: 5.0 mg/kg/injection, schedule: Q01DX009 (ip), vehicle: Klucel (hydroxypropylcellulose) (HPC)): 2 of 3

CC[C@](C)(O)C(=O)O[C@H]1C(=O)O[C@@H]2C[C@H]3C(C)=CC(=O)[C@@H](O)[C@]3(C)[C@H]3[C@@]4(O)OC[C@]32[C@@H]1[C@@H](C)[C@H]4O
T/C (dose: 0.13 mg/kg/injection, schedule: Q01DX009 (ip), vehicle: saline + alcohol): 126 % of control | T/C (dose: 0.25 mg/kg/injection, schedule: Q01DX009 (ip), vehicle: saline + alcohol): 138 % of control | T/C (dose: 0.25 mg/kg/injection, schedule: Q01DX009 (ip), vehicle: saline with Tween-80): 125 % of control | T/C (dose: 0.25 mg/kg/injection, schedule: Q01DX010 (ip), vehicle: steroid suspending solution): 136 % of control | T/C (dose: 0.5 mg/kg/injection, schedule: Q01DX009 (ip), vehicle: saline + alcohol): 135 % of control [5 of 6 alive] | T/C (dose: 0.5 mg/kg/injection, schedule: Q01DX009 (ip), vehicle: saline with Tween-80): 135 % of control [5 of 6 alive] | survivor count (dose: 0.5 mg/kg/injection, schedule: Q01DX010 (ip), vehicle: steroid suspending solution): 2 of 4 | survivor count (dose: 0.8 mg/kg/injection, schedule: Q01DX009 (ip), vehicle: saline with Tween-80): 1 of 6 | T/C [7]: 135 % of control [5 of 6 alive] | survivor count [7]: 3 of 6 | survivor count (dose: 1.0 mg/kg/injection, schedule: Q01DX009 (ip), vehicle: saline): 1 of 6 | survivor count (dose: 1.0 mg/kg/injection, schedule: Q01DX010 (ip), vehicle: other): 2 of 4 | survivor count (dose: 1.0 mg/kg/injection, schedule: Q01DX010 (ip), vehicle: saline): 3 of 6 | survivor count (dose: 1.0 mg/kg/injection, schedule: Q01DX010 (ip), vehicle: steroid suspending solution): 1 of 4 and 2 of 4 | survivor count (dose: 2.0 mg/kg/injection, schedule: Q01DX009 (ip), vehicle: saline + alcohol): 1 of 6 | survivor count (dose: 2.0 mg/kg/injection, schedule: Q01DX009 (ip), vehicle: saline): 1 of 6 | survivor count (dose: 2.0 mg/kg/injection, schedule: Q01DX010 (ip), vehicle: other): 0 of 4 | survivor count (dose: 2.0 mg/kg/injection, schedule: Q01DX010 (ip), vehicle: steroid suspending solution): 0 of 4 | survivor count (dose: 4.0 mg/kg/injection, schedule: Q01DX009 (ip), vehicle: saline + alcohol): 0 of 6 | survivor count (dose: 4.0 mg/kg/injection, schedule: Q01DX010 (ip), vehicle: other): 0 of 4 | survivor count (dose: 4.0 mg/kg/injection, schedule: Q01DX010 (ip), vehicle: steroid suspending solution): 0 of 4 | survivor count (dose: 8.0 mg/kg/injection, schedule: Q01DX010 (ip), vehicle: other): 0 of 4 | survivor count (dose: 8.0 mg/kg/injection, schedule: Q01DX010 (ip), vehicle: steroid suspending solution): 0 of 4
